Results on 40 targets are retold here after the supplement of paper PMC10849652.

Chains of the proteins cited; added tags and fusions are not shown. Lines headed by an entry give the natural chain unless they say otherwise; changes in a name come on top.
UniProt Q8N5B7: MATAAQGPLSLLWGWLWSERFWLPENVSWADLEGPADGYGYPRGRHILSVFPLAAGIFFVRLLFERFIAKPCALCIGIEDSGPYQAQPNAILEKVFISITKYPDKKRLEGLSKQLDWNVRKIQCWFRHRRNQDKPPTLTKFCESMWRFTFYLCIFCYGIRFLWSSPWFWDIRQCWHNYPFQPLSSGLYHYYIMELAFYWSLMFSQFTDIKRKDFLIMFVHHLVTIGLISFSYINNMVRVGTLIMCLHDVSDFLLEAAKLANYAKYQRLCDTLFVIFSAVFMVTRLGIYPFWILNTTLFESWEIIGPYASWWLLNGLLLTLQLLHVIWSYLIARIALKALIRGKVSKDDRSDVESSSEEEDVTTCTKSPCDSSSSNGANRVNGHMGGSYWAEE
UniProt Q5JTW2: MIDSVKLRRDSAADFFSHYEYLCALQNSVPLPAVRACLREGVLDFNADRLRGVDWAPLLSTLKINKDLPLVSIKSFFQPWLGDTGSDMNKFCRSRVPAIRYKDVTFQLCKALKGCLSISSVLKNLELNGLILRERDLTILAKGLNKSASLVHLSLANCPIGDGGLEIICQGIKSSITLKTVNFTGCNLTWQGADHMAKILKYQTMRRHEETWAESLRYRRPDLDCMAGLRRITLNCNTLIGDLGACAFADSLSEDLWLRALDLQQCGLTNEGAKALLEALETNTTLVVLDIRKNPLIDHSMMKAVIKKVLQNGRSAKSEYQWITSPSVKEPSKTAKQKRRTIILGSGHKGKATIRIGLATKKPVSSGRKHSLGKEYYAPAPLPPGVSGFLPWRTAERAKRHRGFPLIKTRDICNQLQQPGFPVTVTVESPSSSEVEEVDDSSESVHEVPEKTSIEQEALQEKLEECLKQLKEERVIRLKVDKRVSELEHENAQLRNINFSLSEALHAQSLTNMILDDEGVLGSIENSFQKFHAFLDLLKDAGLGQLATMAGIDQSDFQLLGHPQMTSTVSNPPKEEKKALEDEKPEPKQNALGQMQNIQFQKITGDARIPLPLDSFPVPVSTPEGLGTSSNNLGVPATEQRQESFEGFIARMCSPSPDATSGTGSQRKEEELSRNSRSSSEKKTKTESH
UniProt A8MT69: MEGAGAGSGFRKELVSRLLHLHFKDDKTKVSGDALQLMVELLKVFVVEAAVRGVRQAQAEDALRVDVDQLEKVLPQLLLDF
UniProt Q9BU64: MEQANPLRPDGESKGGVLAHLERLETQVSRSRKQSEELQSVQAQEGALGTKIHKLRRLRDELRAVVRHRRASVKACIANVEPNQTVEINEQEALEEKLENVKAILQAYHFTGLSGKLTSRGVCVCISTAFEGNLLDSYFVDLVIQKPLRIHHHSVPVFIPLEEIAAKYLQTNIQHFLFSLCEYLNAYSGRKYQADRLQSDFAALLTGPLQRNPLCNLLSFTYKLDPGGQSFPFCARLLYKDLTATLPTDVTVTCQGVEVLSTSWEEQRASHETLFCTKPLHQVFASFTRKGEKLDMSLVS
UniProt P21926: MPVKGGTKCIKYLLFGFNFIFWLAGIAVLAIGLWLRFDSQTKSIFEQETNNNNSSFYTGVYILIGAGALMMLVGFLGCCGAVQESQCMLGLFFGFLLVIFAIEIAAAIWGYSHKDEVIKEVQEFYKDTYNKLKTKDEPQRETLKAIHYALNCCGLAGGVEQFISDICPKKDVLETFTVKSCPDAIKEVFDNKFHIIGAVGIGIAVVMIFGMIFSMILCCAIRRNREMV
UniProt Q96BT3, whole entry, looked up: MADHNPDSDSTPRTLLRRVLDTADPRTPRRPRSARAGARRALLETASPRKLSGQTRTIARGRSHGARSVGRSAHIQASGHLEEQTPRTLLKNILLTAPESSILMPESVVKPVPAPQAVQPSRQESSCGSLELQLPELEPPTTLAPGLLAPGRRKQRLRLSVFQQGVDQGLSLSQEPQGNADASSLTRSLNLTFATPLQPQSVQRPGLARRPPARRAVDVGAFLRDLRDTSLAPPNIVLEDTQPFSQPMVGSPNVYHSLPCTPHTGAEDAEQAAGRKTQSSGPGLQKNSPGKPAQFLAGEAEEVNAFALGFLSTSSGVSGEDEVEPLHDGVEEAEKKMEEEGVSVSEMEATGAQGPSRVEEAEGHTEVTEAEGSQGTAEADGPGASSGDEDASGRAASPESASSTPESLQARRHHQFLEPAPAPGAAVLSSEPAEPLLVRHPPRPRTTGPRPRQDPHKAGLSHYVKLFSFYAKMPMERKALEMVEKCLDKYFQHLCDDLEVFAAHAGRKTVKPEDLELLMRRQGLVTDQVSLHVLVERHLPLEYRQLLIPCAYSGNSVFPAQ
UniProt Q9P2B7: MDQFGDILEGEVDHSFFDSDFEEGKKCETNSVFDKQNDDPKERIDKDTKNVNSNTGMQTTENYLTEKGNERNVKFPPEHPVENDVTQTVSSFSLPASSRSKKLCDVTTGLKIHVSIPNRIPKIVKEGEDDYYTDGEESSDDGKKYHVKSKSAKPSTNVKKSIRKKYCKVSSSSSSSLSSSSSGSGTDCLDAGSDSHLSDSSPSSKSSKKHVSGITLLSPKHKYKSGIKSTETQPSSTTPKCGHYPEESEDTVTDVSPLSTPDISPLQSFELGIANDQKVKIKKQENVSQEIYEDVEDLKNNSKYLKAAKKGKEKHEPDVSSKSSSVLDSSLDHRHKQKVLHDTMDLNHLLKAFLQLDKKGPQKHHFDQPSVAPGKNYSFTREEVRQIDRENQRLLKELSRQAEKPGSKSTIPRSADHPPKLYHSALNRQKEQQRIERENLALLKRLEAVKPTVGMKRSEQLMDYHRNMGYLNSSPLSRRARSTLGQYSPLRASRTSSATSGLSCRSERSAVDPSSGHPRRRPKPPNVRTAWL
UniProt Q9UHN6: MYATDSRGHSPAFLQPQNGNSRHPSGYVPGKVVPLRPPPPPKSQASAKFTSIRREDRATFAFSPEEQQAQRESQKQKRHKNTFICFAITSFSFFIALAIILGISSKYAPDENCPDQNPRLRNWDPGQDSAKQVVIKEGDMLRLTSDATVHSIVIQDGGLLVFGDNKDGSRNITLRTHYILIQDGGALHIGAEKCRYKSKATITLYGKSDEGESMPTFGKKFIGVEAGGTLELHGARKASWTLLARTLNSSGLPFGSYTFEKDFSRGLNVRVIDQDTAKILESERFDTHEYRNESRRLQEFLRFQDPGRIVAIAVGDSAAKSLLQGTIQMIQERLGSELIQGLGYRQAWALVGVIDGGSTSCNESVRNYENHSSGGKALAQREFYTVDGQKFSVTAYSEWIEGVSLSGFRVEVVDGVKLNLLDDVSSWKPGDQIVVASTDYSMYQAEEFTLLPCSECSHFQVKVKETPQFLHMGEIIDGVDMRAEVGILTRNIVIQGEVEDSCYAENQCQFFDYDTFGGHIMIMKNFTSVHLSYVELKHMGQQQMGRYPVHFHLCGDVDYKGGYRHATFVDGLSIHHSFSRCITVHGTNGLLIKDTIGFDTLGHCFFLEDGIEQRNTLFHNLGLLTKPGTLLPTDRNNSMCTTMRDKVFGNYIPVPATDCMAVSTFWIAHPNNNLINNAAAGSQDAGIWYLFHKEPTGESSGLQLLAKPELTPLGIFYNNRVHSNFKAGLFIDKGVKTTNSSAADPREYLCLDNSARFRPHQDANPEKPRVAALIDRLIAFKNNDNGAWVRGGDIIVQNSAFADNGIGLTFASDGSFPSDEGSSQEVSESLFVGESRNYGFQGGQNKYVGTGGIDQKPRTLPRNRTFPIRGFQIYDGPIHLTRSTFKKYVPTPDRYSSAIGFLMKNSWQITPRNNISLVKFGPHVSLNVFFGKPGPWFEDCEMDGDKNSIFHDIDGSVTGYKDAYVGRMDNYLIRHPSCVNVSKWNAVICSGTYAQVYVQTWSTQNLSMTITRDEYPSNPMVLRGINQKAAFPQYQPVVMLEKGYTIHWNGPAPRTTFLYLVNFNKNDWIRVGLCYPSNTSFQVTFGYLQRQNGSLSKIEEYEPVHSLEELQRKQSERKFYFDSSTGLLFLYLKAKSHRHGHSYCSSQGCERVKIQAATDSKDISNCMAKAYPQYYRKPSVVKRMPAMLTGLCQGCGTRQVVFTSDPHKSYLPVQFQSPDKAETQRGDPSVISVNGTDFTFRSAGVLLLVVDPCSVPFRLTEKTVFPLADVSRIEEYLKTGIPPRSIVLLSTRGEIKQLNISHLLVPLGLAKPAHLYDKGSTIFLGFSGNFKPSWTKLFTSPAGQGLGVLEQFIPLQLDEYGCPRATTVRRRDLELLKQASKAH
UniProt O43822: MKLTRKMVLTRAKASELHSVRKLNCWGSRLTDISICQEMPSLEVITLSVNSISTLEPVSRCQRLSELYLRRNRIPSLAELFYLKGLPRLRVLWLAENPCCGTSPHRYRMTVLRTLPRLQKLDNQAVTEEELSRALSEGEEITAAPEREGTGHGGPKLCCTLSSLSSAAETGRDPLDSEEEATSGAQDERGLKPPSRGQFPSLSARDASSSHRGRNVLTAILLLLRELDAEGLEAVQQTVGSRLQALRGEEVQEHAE
UniProt Q9BXL8: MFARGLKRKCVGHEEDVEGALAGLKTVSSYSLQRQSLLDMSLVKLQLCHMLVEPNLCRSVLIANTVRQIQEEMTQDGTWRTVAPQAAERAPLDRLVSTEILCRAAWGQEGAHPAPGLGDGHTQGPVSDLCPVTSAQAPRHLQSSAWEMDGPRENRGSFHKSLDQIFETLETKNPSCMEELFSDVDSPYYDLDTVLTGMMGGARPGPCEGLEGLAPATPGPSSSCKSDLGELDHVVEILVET
UniProt Q9Y4F5: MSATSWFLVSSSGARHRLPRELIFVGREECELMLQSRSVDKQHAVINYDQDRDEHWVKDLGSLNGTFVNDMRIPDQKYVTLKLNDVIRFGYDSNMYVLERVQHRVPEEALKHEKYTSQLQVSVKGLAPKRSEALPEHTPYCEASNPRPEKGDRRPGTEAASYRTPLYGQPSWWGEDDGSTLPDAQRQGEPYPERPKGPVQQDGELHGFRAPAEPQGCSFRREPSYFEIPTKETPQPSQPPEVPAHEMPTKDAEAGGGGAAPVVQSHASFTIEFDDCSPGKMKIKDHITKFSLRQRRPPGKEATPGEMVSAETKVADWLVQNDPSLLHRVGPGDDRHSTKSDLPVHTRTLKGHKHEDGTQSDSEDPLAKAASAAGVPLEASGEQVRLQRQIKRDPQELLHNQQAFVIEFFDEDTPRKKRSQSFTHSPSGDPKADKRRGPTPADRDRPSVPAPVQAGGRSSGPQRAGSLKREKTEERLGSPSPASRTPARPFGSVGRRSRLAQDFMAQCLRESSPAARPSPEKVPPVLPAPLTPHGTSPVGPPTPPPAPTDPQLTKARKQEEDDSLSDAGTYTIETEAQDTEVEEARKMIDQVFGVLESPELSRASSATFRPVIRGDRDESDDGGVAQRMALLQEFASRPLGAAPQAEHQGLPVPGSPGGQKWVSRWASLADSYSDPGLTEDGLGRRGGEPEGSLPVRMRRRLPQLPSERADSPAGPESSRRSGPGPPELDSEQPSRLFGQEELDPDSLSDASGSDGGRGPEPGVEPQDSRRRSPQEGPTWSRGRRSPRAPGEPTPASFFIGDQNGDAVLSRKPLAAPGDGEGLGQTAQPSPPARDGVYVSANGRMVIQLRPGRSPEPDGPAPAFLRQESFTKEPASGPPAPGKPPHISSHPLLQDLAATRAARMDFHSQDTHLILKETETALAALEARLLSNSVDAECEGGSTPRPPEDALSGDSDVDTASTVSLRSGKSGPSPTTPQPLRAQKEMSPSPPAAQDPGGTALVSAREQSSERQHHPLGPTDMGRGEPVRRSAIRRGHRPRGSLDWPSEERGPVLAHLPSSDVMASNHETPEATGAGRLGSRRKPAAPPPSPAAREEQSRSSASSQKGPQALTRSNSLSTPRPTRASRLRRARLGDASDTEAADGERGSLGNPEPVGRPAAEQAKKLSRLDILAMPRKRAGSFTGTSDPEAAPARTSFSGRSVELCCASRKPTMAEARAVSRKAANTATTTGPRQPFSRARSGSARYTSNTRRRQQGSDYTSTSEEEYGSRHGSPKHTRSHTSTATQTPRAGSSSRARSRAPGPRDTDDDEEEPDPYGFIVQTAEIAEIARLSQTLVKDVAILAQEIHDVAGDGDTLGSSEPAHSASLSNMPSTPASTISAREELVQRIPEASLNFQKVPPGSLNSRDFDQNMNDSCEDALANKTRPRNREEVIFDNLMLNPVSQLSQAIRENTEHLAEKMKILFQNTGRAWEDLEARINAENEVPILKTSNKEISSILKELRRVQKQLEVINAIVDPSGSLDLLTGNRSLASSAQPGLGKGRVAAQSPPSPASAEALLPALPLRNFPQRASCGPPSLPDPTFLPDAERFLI
UniProt P17676: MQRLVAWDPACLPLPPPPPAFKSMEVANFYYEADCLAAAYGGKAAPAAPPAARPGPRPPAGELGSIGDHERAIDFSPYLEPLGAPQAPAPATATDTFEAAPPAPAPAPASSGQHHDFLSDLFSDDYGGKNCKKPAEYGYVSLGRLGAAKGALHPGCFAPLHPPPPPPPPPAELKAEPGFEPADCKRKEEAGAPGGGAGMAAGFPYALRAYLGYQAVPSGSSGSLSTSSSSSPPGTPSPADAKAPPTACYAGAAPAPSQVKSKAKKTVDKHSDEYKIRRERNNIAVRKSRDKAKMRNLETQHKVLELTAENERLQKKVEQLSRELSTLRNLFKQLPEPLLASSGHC

This is one part of the list.

Holding throughout (assay): log2 fold change, soluble protein after heating vs DMSO (PISA); higher = thermal stabilisation; K562 lysate, 10 uM; active = over 0.2 and 3.5 SD of the protein, either way, in both replicates (recomputed)
Compound in one test: Cc1nc(Nc2ncc(C(=O)Nc3c(C)cccc3Cl)s2)cc(N2CCN(CCO)CC2)n1 [dasatinib]
A digest of the protocol:
(§1)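 Pellets of K562 cells were dounce-homogenised in PBS pH 7.4 with 1 mM MgCl2, and the crude extract was held at 1 mg/mL protein for a 30 min treatment with 10 μM compound. Aliquots were heated for 3 min over 48°C-58°C and pooled before NP-40 was added to 0.5% at 4°C. The supernatant from 21,000xg for 90 min was quantified by TMTpro 16plex LC-MS/MS with channel sums equalised. Values are reported from duplicates as log-two fold change in thermal stability relative to solvent controls.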

Compound in test [1]: Cn1cc(-c2ccc3c(c2)CCN3C(=O)Cc2cccc(C(F)(F)F)c2)c2c(N)ncnc21
A digest of the protocol:
as §1

Compound in a further test: Cn1cc(CNCC2CCN(c3ncc(C(=O)NO)cn3)CC2)c2ccccc21 [quisinostat]
The procedure, abridged: as §1

Compound in test [2]: NC(=O)Nc1cc(-c2cccc(F)c2)sc1C(=O)N[C@H]1CCCNC1
A digest of the protocol: as §1

Compound in test [3]: NC(=O)c1cnc(N[C@@H]2CCCC[C@@H]2N)nc1Nc1cccc(-n2nccn2)c1
A digest of the protocol:
as §1

Compound in test [4]: NC1(c2ccc(-c3nc4ccn5c(=O)[nH]nc5c4cc3-c3ccccc3)cc2)CCC1
The procedure, abridged:
as §1

Compound in a further test: Cc1cn(-c2cc(NC(=O)c3ccc(C)c(Nc4nccc(-c5cccnc5)n4)c3)cc(C(F)(F)F)c2)cn1 [nilotinib]
A digest of the protocol:
as §1

Compound in test [5]: Cc1nc(Nc2n[nH]c3c2CN(C(=O)N[C@H](CN(C)C)c2ccccc2)C3(C)C)c2sccc2n1
The procedure, abridged: as §1

Compound in test [6]: Cc1ncc(-c2ccnc(Nc3ccc(S(C)(=O)=O)cc3)n2)n1C(C)C
A digest of the protocol:
as §1

Compound in another test: Cn1cncc1[C@@](N)(c1ccc(Cl)cc1)c1ccc2c(c1)c(-c1cccc(Cl)c1)cc(=O)n2C [tipifarnib]
The procedure, abridged:
as §1

Turning to CERS5 (UniProt Q8N5B7), the log2 fold change with dasatinib is inactive: 0.05; in test [1], inactive: -0.046; with quisinostat, inactive: -0.173; in [2] it was inactive: 0.031; in [3] it was inactive: 0.027; in [4], inactive: 0.105.
As to CDAN1 (UniProt H3BPZ6), the log2 fold change with quisinostat was inactive: 0.093; in [2] it was inactive: 0.056.
CFLAR (UniProt O15519): the log2 fold change with dasatinib was inactive: 0.034; in [1], inactive: 0.115; with quisinostat, inactive: -0.064; in test [2], inactive: 0.074.
For the target CEP162 (UniProt Q5TB80), the log2 fold change in the test with quisinostat is inactive: -0.124; in test [2], inactive: 0.077.
CENPC (UniProt Q03188): the figures for the log2 fold change (in the test with dasatinib; in [1]; in test [4]) were inactive: -0.044, inactive: -0.063 and inactive: -0.257, respectively.
As for CDPF1 (UniProt Q6NVV7), the log2 fold change in the test with quisinostat was inactive: -0.079; in test [2], inactive: 0.
In the case of CEP164 (UniProt Q9UPV0), the log2 fold change in test [3] is inactive: 0.033; in test [4] it was inactive: -0.092.
In the case of CEP78 isoform 2 (UniProt Q5JTW2), the log2 fold change was inactive: 0.118 in the test with dasatinib; inactive: 0.058 in test [1]; inactive: 0.037 in the test with quisinostat; inactive: -0.058 in [2]; inactive: 0.13 in test [4].
Consider CEP68 (UniProt Q76N32), for which the figures for the log2 fold change (with dasatinib; in test [1]; in test [4]) were inactive: 0.1, inactive: -0.086 and inactive: -0.027, respectively.
With CDKL5 (UniProt O76039), the log2 fold change was inactive: -0.095 with dasatinib; inactive: 0.188 in test [1]; inactive: -0.283 with quisinostat; inactive: -0.002 in test [2]; inactive: 0.069 in [3].
In the case of CEBPG (UniProt P53567), the results for the log2 fold change (with quisinostat; in test [2]; in test [3]) were inactive: -0.001, inactive: -0.007 and inactive: -0.072, respectively.
Take CDT1 (UniProt Q9H211): the log2 fold change with dasatinib was inactive: 0.036; in test [1], inactive: -0.034; with quisinostat it was inactive: 0.013; in test [2], inactive: 0.034; in test [4], inactive: 0.058.
As to CD82 (UniProt P27701), the log2 fold change is inactive: 0.125 in the test with nilotinib; inactive: 0.074 in [5]; inactive: -0.039 in test [6]; inactive: 0.16 with tipifarnib; inactive: 0.074 in test [3]; inactive: -0.076 in test [4].
As for CENPX (UniProt A8MT69), the log2 fold change was inactive: -0.064 with quisinostat and inactive: 0.12 in test [2].
For CENPO (UniProt Q9BU64), the log2 fold change with nilotinib was inactive: 0.222; in [5], inactive: -0.321; in [6], inactive: -0.199; with tipifarnib it was inactive: -0.063; in [4], inactive: 0.175.
On to CDC42EP2 (UniProt O14613), for which the log2 fold change is inactive: 0.035 with quisinostat and inactive: 0.036 in test [2].
As to CD9 (UniProt P21926), the figures for the log2 fold change (with dasatinib; in test [1]) were inactive: 0.019 and inactive: 0.03, respectively.
Take CENPT (UniProt Q96BT3): in [4], the log2 fold change is inactive: 0.265.
Take CEP72 (UniProt Q9P209): the log2 fold change with dasatinib was inactive: -0.086; in test [1], inactive: 0.029; in test [4] it was inactive: 0.056.
For the target CFAP97 (UniProt Q9P2B7), the log2 fold change in the test with dasatinib is inactive: 0.143; in test [1], inactive: 0.144; in the test with quisinostat it was inactive: -0.131; in [2], inactive: -0.074; in test [4], inactive: 0.02.
Turning to CDNF (UniProt Q49AH0), the log2 fold change with quisinostat is inactive: 0.222; in test [2], inactive: -0.054; in test [3] it was inactive: 0.071.
On to CEMIP2 (UniProt Q9UHN6), for which the log2 fold change in the test with dasatinib is inactive: 0.014; in [1] it was inactive: -0.052; in the test with quisinostat, inactive: -0.061; in test [2] it was inactive: 0.02; in test [3], inactive: 0.009; in test [4], inactive: -0.019.
As to CFL1 (UniProt E9PP50), the log2 fold change in test [3] is inactive: -0.259.
Turning to CFAP410 (UniProt O43822), the log2 fold change is inactive: -0.1 in the test with nilotinib; inactive: 0.033 in [5]; inactive: -0.143 in [6]; inactive: -0.105 in the test with quisinostat; inactive: -0.138 in the test with tipifarnib; inactive: 0.082 in test [2]. In addition, the log2 fold change in [4] is inactive: 0.04.
Consider CENPJ (UniProt Q9HC77), for which the log2 fold change in the test with dasatinib was inactive: 0.061; in [1] it was inactive: 0.067; in the test with quisinostat, inactive: -0.122; in [2], inactive: 0.015; in test [3], inactive: -0.296; in test [4] it was inactive: -0.014.
With CDC37 (UniProt K7EL68), the results for the log2 fold change (in the test with quisinostat; in [2]) were inactive: -0.161 and inactive: 0.007, respectively.
For the target CDCA4 (UniProt Q9BXL8), the log2 fold change with dasatinib is inactive: -0.032; in test [1], inactive: -0.054.
For the target CDADC1 (UniProt Q9BWV3), the log2 fold change is inactive: -0.007 with quisinostat and inactive: -0.021 in test [2].
For CHAC1 (UniProt Q9BUX1), the log2 fold change with dasatinib was inactive: -0.061; in test [1], inactive: -0.049; in the test with quisinostat, inactive: -0.005; in test [2], inactive: 0.062.
CEP170 isoform 2 (UniProt Q5SW79): the results for the log2 fold change (with dasatinib; in [1]) were inactive: -0.035 and inactive: -0.072, respectively.
Turning to CEP128 (UniProt Q6ZU80), the values for the log2 fold change (with dasatinib; in test [1]) were inactive: -0.168 and inactive: 0.041, respectively.
In the case of CEP170B (UniProt Q9Y4F5), the log2 fold change in the test with dasatinib was inactive: -0.061; in [1], inactive: -0.014; with quisinostat, inactive: -0.016; in test [2] it was inactive: -0.069; in [3] it was inactive: -0.211.
As to CEBPB (UniProt P17676), the log2 fold change was inactive: 0.007 with dasatinib; inactive: -0.136 in [1]; inactive: -0.053 in the test with quisinostat; inactive: 0.011 in [2]; inactive: 0 in test [4].
In the case of CELSR2 (UniProt Q9HCU4), the log2 fold change in [4] is inactive: 0.287.
Regarding CDKN1B (UniProt P46527), the log2 fold change with dasatinib was inactive: 0.021; in [1], inactive: 0.034; with quisinostat, active: 0.393; in test [2], inactive: -0.122; in test [3], inactive: -0.035; in [4], inactive: 0.045.
As to CEP57 (UniProt Q86XR8), the log2 fold change in [4] was inactive: 0.229.
Take CDK2 (UniProt P24941): the log2 fold change was inactive: -0.01 in the test with nilotinib; inactive: 0.018 with dasatinib; inactive: 0.01 in [1]; inactive: -0.077 with quisinostat; inactive: 0.011 with tipifarnib; inactive: 0.005 in test [2]. The values for the log2 fold change in test [3] and in test [4] were inactive: 0.067 and inactive: -0.012, respectively.
For the target CEP85L isoform 4 (UniProt Q5SZL2), the values for the log2 fold change (with quisinostat; in test [2]; in test [4]) were inactive: -0.047, inactive: 0.029 and inactive: -0.129, respectively.
Turning to CDC42, A0A494C1M1, the log2 fold change in the test with nilotinib was inactive: -0.128; in [5], inactive: 0.009; in test [6] it was inactive: 0.079; with tipifarnib, inactive: 0.02; in test [3] it was inactive: 0.005.
CFL1 (UniProt E9PQB7): the figures for the log2 fold change (in the test with quisinostat; in test [2]) were inactive: 0.073 and inactive: 0.049, respectively.
